For this experiment, the target named is T1, prostaglandin D2 receptor DP2/CRTH2 fused to Renilla luciferase (UniProt Q9Y5Y4).
T1 sequence: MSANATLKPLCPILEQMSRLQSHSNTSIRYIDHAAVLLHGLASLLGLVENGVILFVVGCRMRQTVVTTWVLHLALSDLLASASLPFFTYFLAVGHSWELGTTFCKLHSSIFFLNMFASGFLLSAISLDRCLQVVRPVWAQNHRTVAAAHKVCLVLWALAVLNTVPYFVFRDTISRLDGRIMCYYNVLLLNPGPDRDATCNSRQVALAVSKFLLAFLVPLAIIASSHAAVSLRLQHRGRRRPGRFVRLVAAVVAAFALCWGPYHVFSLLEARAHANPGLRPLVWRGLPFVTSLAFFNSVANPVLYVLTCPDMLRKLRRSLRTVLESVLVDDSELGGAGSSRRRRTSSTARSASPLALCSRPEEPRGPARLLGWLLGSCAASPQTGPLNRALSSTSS
Briefly: FRET or BRET; BRET^2 in HEK293 cells stably expressing CRTH2-RLuc (donor) and GFP^2-β-arrestin2 (acceptor); agonist PGD2 5 min, HBSS with 20 mM HEPES, DeepBlueC coelenterazine 5 μM; with or without pretreatment with PTX (16-20 h) or FR (30 min). In general terms: BRET reads energy transfer from a luciferase to a nearby fluorophore.

Amino acid sequences for entries named in this document (tags omitted).
UniProt P32121: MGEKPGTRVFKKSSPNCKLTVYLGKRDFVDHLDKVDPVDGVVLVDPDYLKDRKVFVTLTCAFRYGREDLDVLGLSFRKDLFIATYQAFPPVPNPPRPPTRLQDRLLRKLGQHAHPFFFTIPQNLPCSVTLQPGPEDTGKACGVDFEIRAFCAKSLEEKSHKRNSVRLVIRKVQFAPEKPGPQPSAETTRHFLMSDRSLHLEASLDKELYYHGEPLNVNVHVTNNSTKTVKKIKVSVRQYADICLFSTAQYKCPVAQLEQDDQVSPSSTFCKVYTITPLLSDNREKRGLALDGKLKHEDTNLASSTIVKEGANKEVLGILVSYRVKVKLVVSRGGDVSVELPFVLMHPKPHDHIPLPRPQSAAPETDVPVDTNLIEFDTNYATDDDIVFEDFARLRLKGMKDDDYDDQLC

Results are given in words; binding and its absence hold for the method and conditions named. Binding seen in cells or lysates may run through a third protein. Some binding calls cover weakened binding; strength is not graded here. Sequences can lack the tags named with a protein.

For the substance “GFP^2-β-arrestin2 (from UniProt P32121 1-409)”, the binding result is given as “binds”.
